# Measured values reported in PubChem BioAssay AID504582 (Broad Institute, 2011).
# In all, about 340,000 compounds went through this assay and about 2,300 (0.68%) were called active. Inconclusive results, whose numbers are uncertain, are shown with a selection of clear calls. Cut-off read from the data, not from the text of the source: active = growth rescue above about 28% (passing the limit was not always enough); inconclusive = no clear call, values can overlap the other calls.
# Experiment: rescue of yeast from PfHsp40 toxicity, primary screen, S. cerevisiae, ATP luminescence (AID 504582);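 note: yeast W303a lacking pdr1 and pdr3 grown in galactose medium; growth measured after three days at 30 °C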
# Settings: S. cerevisiae expressing PfHsp40, growth rescue, at 12.5 µM, stronger effect = higher value
row,Structure (SMILES),growth rescue
1,O=c1cc(CO)oc(CN2CCN(c3cccc(C(F)(F)F)c3)CC2)c1O,inconclusive: 45.8%
2,COc1ccc(-c2csc3ncnc(N4CCN(c5ccc(OC)cc5)CC4)c23)cc1,inconclusive: 28.6%
3,O=c1[nH]c(-c2ccc(Cl)cc2)cs1,inactive: 0.111%
4,Nc1cccc2c1C(=O)c1ccc(Cl)cc1C2=O,inactive: 0.303%
5,C=CCNC(=S)N/N=C/c1ccc(OCc2ccccc2Cl)cc1,inconclusive: 52.8%
6,CCc1nnc(NC(=O)CCc2ccc(C)o2)s1,inactive: 0.899%
7,COc1cc(C2C3C(C)N(C)C(=O)N(C)C3N(C)C(=O)N2C)ccc1O (stereo unspecified),active: 51.5%
8,Cn1c(O)c(C(=Nc2ccc(F)cc2)c2ccccc2Cl)c(=O)n(C)c1=O,inconclusive: 34.5%
9,C[C@@H](CSc1ccc(Br)cc1)CN1CC[C@H](NC(=O)OCc2ccccc2)CCC1=O,inactive: 12.6%
10,Cc1ccc(C)c(S(=O)(=O)N(C(=O)c2ccncc2)c2ccc(OC(=O)c3ccncc3)cc2)c1,inconclusive: 40%
11,CC(Sc1cnccn1)C(=O)O (stereo unspecified),inactive: -0.56%
12,CCc1nc2ccccc2c(=O)n1NC(=O)c1c(O)c2ccccc2n(CC)c1=O,active: 181%
13,CCCCn1[nH]c(-c2ccccc2)cc1=O,inactive: -1.97%
14,Cc1ccccc1C(=O)/C(C#N)=N/Nc1c(C)n(C)n(-c2ccccc2)c1=O,inconclusive: 45.1%
15,COC(=O)c1cccc(NC(=O)C23CC4CC(C2)CC(n2cncn2)(C4)C3)c1,inconclusive: 27.4%
16,N#CC(c1ccc(Cl)cc1)c1nc2ccccc2nc1C(F)(F)F (stereo unspecified),active: 53.2%
17,CCOc1ccc(C(=O)Nc2ccc(NC(=O)c3ccco3)c(Cl)c2)cc1Cl,inactive: 0.57%
18,c1ccc(CSc2nnc(Cc3ccccc3)o2)cc1,inactive: -0.487%
19,COc1cccc(NC(=O)N(Cc2ccco2)C(C)c2cccs2)c1 (stereo unspecified),inactive: 0.539%
20,CC(C)c1ccccc1OCCNS(C)(=O)=O,inconclusive: 45.7%
21,Oc1c(C(c2ccccn2)N2CCCCC2)cc(Cl)c2cccnc12 (stereo unspecified),inconclusive: 153%
22,Cc1nc(N2CCN(C(=O)c3ccco3)CC2)c2oc3ccccc3c2n1,inactive: 0.175%
23,O=C(CN1CC(=O)Oc2ccccc21)OCC(=O)c1ccc(Br)cc1,inactive: 1.44%

row,Structure (SMILES),growth rescue
1,O=C(/C=C1\C(=O)Nc2ccccc21)/C=C1\C(=O)Nc2ccccc21,inactive: 0.361%
2,O=[N+]([O-])c1ccc(O)c(/C=N/Nc2ccccn2)c1,active: 308%
3,Cc1nc2nc(SCC(=O)NCCCN3CCCCCC3)nn2c(C)c1Cc1ccccc1,inconclusive: 88.5%
4,COc1ccc(CNC(=O)c2cc3c(s2)CN(Cc2ccccc2)C3)cc1,inactive: 0.314%
5,CC(C)Nc1ccc(Nc2ccnc3cc4ccccc4cc23)cc1,inactive: -1.05%
6,Cc1ccc(C)c(N2CCN(c3nc4ccccc4c(=O)n3Cc3ccccc3)CC2)c1,inactive: -0.194%
7,C=CC[C@@H](Cc1ccc(F)cc1)C(=O)OC[C@H]1CCCN1C(=O)[C@H](CC=C)CC(=O)N(CCO)Cc1ccccc1,inconclusive: 26.6%
8,ON1C(c2ccccc2)CC2(O)c3nonc3CCC12 (stereo unspecified),inconclusive: 75.3%
9,O=C(CSc1nnc(-c2cccnc2)n1-c1ccc(SC(F)F)cc1)N1CCCc2ccccc21,inconclusive: 33.2%
10,C#CCOCCOCCOCCNc1nc(N2CCN(C(=O)[C@H]([C@@H](C)CC)n3cc([C@@H](N)Cc4ccc(O)cc4)nn3)CC2)nc(N2CCN(C(=O)[C@H]([C@@H](C)CC)n3cc([C@@H](N)Cc4ccc(O)cc4)nn3)CC2)n1,inactive: 0.298%
11,O=C(NC(=S)Nc1ccc(S(=O)(=O)NC2CCCCC2)cc1)c1cccs1,inconclusive: 85.6%
12,Nc1nc2c(s1)CCc1ccccc1-2,inactive: 2.32%
13,Cn1cc(C(=O)c2ccc(Cl)cc2Cl)cc1C(=O)N/N=C(\N)COc1ccc(Cl)cc1Cl,inconclusive: 45.9%
14,CCNc1sc(C(=O)c2cccs2)c(N)c1C#N,inactive: -1.06%
15,O=C(NCc1cccs1)C1CCN(S(=O)(=O)N2CCCC2)CC1,active: 32.6%
16,COc1cc(NC(=O)c2ccc([N+](=O)[O-])o2)ccc1NC(=O)c1cccs1,inactive: 2.68%
17,CCN1CCN(C(=S)c2ccc(Cl)cc2)CC1,inactive: -1.22%
18,Cc1ccc2nc3c(cc(C(=O)NC4CCCC4)c(=N)n3C3CCCCC3)c(=O)n2c1,inconclusive: 42.7%
19,COc1ccc(OC)c(S(=O)(=O)CC(O)COc2ccccc2Cl)c1 (stereo unspecified),inactive: 0.536%
20,COc1ccc(N2CCN(S(=O)(=O)c3cc4c5c(c3)C(C)C(=O)N5CCC4)CC2)cc1 (stereo unspecified),inconclusive: 29.5%
21,Cc1cc2cc(CNS(=O)(=O)c3ccccc3)ccc2n1C,inactive: 3.54%
22,CCCCCCCOC(=O)c1nc(Cl)c(Cl)c(N)c1Cl,inconclusive: 60.4%
23,Cc1cnc(C(=O)Nc2ccccc2-n2cccc2)cn1,inconclusive: 56.2%

row,Structure (SMILES),growth rescue
1,COc1ccc(C)cc1NC(=O)CSc1ccc(-c2cccnc2)nn1,inconclusive: 27.6%
2,CCC(Oc1ccccc1)C(=O)Nc1ncc([N+](=O)[O-])s1 (stereo unspecified),active: 166%
3,O=c1c2ccccc2oc2cc(C#CC3(O)CCCCC3)ccc12,inconclusive: 29.3%
4,CCc1ccccc1NCC(=O)Nc1ccc(Cl)c(C(F)(F)F)c1,inconclusive: 183%
5,O=S(=O)(c1ccc(Cl)cc1)N1CCCCC1c1cccnc1 (stereo unspecified),inconclusive: 30.3%
6,CC(C)C[C@H](NC(=O)c1nc[nH]c1C(=O)NCCCCCNC(=O)OC(C)(C)C)C(=O)OC(C)(C)C,inconclusive: 27.2%
7,CCc1ccc(NC(=O)c2cnn3c(C(F)F)cc(C)nc23)cc1,inconclusive: 34.3%
8,CCCN1C(=O)CSC1=Nc1ccccc1,inconclusive: 32.5%
9,COc1ccc(C(=O)O/N=C(\N)Cc2ccc(Cl)cc2Cl)cc1OC,inconclusive: 140%
10,Cc1nnc(SCCn2c(Br)nc3c2c(=O)[nH]c(=O)n3C)s1,inconclusive: 31.4%
11,COc1cccc(N2CCN(C(=O)C3C4C=CC5(CN(Cc6ccccc6Cl)C(=O)C35)O4)CC2)c1 (stereo unspecified),inactive: 0.484%
12,CC1CCCCC1NC(=S)NC(=O)c1cccs1 (stereo unspecified),inconclusive: 25.2%
13,CC(=O)Nc1ccc(S(=O)(=O)NCc2nc(-c3ccccc3C)no2)cc1,inactive: 3.64%
14,O=C(CN1CCN(CCN2C(=O)c3cccc4cccc(c34)C2=O)CC1)c1ccc(F)cc1,inactive: -0.98%
15,CCCCCC(O)CCCC(=O)O (stereo unspecified),inconclusive: 38.2%
16,CCCOc1ccc2ccccc2c1/C=C1\SC(=O)NC1=O,active: 504%
17,CCOc1ccc2c(c1)c1nc3ccccc3nc1n2C,inactive: 0.045%
18,CCOC(=O)C1CCCN(C(=O)c2cccc(S(=O)(=O)N(Cc3ccccc3)c3ccccc3OC)c2)C1 (stereo unspecified),inactive: -0.023%
19,CCOC(=O)c1nc(N2CCN(C(=O)OCC)CC2)c2c3c(sc2n1)CCCC3,inconclusive: 31.9%
20,Oc1c(Cl)cc(CN2CCOCC2)c2cccnc12,inconclusive: 28.6%
21,O=C(Nc1nccs1)c1cc2c(s1)CCCCC2,inconclusive: 29.1%
22,Cc1ccc(O)c(C(=O)c2cc(C#N)c3nc4ccccc4n3c2)c1,inactive: 2.11%
23,O=C(Nc1ccc(Cl)c([N+](=O)[O-])c1)C(Sc1ccccc1)c1ccccc1 (stereo unspecified),inconclusive: 49.7%

# A draw from above in order of formula weight, descending:
row,Structure (SMILES),growth rescue
5,O=S(=O)(c1ccc(Cl)cc1)N1CCCCC1c1cccnc1 (stereo unspecified),inconclusive: 30.3%
2,CCC(Oc1ccccc1)C(=O)Nc1ncc([N+](=O)[O-])s1 (stereo unspecified),active: 166%
17,CCOc1ccc2c(c1)c1nc3ccccc3nc1n2C,inactive: 0.045%

# Next part

row,Structure (SMILES),growth rescue
1,CCc1nc(N2CCCCC2C)c2oc3ccccc3c2n1 (stereo unspecified),inconclusive: 32.9%
2,COc1ccc([C@@H]2[C@H]3C(=O)N(c4cccc(C(F)(F)F)c4)C(=O)[C@H]3ON2C)cc1,inconclusive: 27.3%
3,COc1cc(-c2noc(-c3cccc(Cl)c3)n2)cc(OC)c1OC,inactive: -0.378%
4,COC(=O)c1cc(NCc2ccccc2F)ccc1N1CCOCC1,inactive: -1.09%
5,C(=C1c2ccccc2-c2ccccc21)c1ccccn1,inconclusive: 34.4%
6,O=S(=O)(Nc1ccc(N=Nc2ccccc2)cc1)c1ccccc1,active: 102%
7,COC(=O)c1ccc2c(c1O)C(=O)c1ccccc1C2=O,active: 342%
8,CCOC(=O)c1ccc(NC(=O)c2nc[nH]c2C(=O)N[C@@H](C)C(=O)OC(C)(C)C)cc1,inconclusive: 42.4%
9,O=C(Cc1cccs1)N/N=C\c1ccc([N+](=O)[O-])s1,inconclusive: 285%
10,O=C(NCCc1ccccc1)c1ccc(Br)o1,inconclusive: 34.7%
11,NC(=O)CSc1nnc(-c2cccnc2)n1Cc1ccccc1,inconclusive: 38%
12,NC(=O)c1cc(-c2csc(NCCc3ccccc3)n2)ccc1O,inactive: 0.38%
13,COc1ccc(C(C)(C)C)cc1NC(=O)COC(=O)c1ccc([N+](=O)[O-])o1,active: 532%
14,CC(Oc1ccccc1)C(=O)Nc1nc(-c2ccncc2)cs1 (stereo unspecified),inactive: 12.1%
15,Cn1ncc(C(N)=O)c1NC(=S)NC(=O)c1ccc(Br)o1,inconclusive: 30%
16,Oc1ccccc1C1SC(c2ccccc2O)SC(c2ccccc2O)S1 (stereo unspecified),active: 32.2%
17,O=C(NN1C(=O)/C(=C/c2ccc(O)c([N+](=O)[O-])c2)SC1=S)c1ccccc1Cl,inconclusive: 58.6%
18,CCc1ccc(CCC(=O)Nc2ncc(Cc3ccccc3Cl)s2)o1,inactive: 4.36%
19,Cn1ncc2c(Nc3ccccc3Cl)nc(Nc3ccccc3Cl)nc21,inconclusive: 33.3%
20,CSc1cccc(NC(=O)/C=C/c2ccc(Cl)cc2)c1,inconclusive: 128%
21,COc1cnc(-c2ccccn2)nc1Sc1ccccc1,active: 268%
22,CC(C)=CCCC1(C)C=Cc2c(c(C)cc3c2[nH]c2cc(O)ccc23)O1 (stereo unspecified),inconclusive: 31.2%

# Part of the list above, tab-delimited.
row	Structure (SMILES)	growth rescue
3	COc1cc(-c2noc(-c3cccc(Cl)c3)n2)cc(OC)c1OC	inactive: -0.378%
4	COC(=O)c1cc(NCc2ccccc2F)ccc1N1CCOCC1	inactive: -1.09%
5	C(=C1c2ccccc2-c2ccccc21)c1ccccn1	inconclusive: 34.4%
6	O=S(=O)(Nc1ccc(N=Nc2ccccc2)cc1)c1ccccc1	active: 102%
7	COC(=O)c1ccc2c(c1O)C(=O)c1ccccc1C2=O	active: 342%
8	CCOC(=O)c1ccc(NC(=O)c2nc[nH]c2C(=O)N[C@@H](C)C(=O)OC(C)(C)C)cc1	inconclusive: 42.4%
9	O=C(Cc1cccs1)N/N=C\c1ccc([N+](=O)[O-])s1	inconclusive: 285%
10	O=C(NCCc1ccccc1)c1ccc(Br)o1	inconclusive: 34.7%
11	NC(=O)CSc1nnc(-c2cccnc2)n1Cc1ccccc1	inconclusive: 38%
12	NC(=O)c1cc(-c2csc(NCCc3ccccc3)n2)ccc1O	inactive: 0.38%
13	COc1ccc(C(C)(C)C)cc1NC(=O)COC(=O)c1ccc([N+](=O)[O-])o1	active: 532%
14	CC(Oc1ccccc1)C(=O)Nc1nc(-c2ccncc2)cs1 (stereo unspecified)	inactive: 12.1%
15	Cn1ncc(C(N)=O)c1NC(=S)NC(=O)c1ccc(Br)o1	inconclusive: 30%
16	Oc1ccccc1C1SC(c2ccccc2O)SC(c2ccccc2O)S1 (stereo unspecified)	active: 32.2%
17	O=C(NN1C(=O)/C(=C/c2ccc(O)c([N+](=O)[O-])c2)SC1=S)c1ccccc1Cl	inconclusive: 58.6%
18	CCc1ccc(CCC(=O)Nc2ncc(Cc3ccccc3Cl)s2)o1	inactive: 4.36%
19	Cn1ncc2c(Nc3ccccc3Cl)nc(Nc3ccccc3Cl)nc21	inconclusive: 33.3%
20	CSc1cccc(NC(=O)/C=C/c2ccc(Cl)cc2)c1	inconclusive: 128%
21	COc1cnc(-c2ccccn2)nc1Sc1ccccc1	active: 268%
